In the supplement of paper PMC10849652:
The list shows a part of the results.

By UniProt entry, the sequences of proteins in these tests, tags left out. Where a name states a change or a piece, a line headed by the entry shows the natural chain unless it says otherwise.
UniProt O60231: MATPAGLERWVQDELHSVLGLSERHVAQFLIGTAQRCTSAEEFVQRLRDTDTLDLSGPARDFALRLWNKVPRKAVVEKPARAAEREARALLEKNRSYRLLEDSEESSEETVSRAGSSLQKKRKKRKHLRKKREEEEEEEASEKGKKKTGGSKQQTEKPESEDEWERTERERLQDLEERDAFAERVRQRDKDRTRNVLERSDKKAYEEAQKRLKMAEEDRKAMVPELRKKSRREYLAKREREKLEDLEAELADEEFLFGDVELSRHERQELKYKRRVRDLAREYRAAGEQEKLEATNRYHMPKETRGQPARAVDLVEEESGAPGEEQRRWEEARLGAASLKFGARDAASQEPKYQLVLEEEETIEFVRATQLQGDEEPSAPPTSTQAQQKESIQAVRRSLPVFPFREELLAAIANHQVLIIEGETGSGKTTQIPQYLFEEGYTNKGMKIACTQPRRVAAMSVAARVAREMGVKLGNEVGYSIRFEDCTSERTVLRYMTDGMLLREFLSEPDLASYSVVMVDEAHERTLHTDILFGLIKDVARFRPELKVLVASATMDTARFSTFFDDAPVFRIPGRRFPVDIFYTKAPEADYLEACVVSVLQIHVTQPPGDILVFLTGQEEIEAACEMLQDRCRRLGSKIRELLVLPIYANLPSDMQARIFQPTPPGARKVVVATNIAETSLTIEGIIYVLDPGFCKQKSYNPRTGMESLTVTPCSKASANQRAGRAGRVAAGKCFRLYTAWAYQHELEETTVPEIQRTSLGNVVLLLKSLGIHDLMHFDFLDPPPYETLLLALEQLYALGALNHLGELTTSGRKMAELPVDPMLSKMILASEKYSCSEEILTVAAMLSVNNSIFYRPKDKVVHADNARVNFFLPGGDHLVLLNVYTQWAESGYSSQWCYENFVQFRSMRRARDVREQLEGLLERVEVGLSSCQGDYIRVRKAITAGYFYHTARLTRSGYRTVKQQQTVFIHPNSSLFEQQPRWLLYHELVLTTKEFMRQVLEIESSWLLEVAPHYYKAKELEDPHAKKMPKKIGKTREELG
UniProt O00148, whole entry, looked up: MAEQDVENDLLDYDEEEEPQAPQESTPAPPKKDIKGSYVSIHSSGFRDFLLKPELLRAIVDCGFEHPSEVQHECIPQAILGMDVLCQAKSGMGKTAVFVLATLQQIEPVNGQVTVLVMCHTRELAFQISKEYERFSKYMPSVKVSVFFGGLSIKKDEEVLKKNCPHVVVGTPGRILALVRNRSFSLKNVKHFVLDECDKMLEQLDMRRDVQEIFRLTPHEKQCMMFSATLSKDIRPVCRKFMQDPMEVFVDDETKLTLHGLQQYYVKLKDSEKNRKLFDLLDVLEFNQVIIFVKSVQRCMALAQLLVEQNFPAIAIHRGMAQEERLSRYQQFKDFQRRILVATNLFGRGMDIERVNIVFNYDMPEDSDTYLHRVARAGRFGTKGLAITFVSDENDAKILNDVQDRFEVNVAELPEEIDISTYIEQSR
UniProt Q86Y56: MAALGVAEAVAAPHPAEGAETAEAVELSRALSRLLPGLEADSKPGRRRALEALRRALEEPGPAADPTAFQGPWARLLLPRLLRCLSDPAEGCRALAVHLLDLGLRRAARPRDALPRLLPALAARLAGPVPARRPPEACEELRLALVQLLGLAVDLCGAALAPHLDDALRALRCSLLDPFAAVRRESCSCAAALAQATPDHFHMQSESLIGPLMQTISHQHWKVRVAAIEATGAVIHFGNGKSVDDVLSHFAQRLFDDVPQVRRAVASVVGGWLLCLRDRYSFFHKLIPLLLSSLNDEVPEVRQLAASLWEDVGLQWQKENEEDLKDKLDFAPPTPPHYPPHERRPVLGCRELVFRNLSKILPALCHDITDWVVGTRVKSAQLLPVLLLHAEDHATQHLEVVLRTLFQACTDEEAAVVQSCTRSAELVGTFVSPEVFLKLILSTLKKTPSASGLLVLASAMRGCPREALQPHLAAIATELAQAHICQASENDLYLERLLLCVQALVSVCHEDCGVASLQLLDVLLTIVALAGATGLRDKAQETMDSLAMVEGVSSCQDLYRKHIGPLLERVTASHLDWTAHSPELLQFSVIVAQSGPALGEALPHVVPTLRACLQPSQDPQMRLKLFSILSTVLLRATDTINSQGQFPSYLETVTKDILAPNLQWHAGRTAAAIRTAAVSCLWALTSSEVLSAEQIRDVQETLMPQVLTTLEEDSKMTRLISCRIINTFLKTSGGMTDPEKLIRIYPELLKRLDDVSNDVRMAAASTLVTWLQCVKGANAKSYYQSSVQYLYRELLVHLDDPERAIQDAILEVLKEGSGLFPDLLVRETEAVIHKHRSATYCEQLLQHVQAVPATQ
UniProt Q5T1V6: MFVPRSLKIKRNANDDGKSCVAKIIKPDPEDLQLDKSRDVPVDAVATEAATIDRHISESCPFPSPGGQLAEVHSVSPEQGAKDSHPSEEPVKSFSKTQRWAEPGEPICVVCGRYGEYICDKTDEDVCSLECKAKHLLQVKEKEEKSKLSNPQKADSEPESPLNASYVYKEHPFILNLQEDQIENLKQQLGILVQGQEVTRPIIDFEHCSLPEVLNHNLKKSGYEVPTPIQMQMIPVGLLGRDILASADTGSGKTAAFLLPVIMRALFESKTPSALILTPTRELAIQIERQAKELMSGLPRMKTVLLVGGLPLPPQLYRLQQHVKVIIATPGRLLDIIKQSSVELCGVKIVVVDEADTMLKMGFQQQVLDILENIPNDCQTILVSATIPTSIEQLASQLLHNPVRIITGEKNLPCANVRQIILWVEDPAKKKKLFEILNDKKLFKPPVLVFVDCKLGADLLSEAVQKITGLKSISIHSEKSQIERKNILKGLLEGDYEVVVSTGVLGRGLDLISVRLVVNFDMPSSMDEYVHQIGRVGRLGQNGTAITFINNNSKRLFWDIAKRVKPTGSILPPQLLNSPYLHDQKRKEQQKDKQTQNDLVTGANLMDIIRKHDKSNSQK
UniProt Q8NDZ4: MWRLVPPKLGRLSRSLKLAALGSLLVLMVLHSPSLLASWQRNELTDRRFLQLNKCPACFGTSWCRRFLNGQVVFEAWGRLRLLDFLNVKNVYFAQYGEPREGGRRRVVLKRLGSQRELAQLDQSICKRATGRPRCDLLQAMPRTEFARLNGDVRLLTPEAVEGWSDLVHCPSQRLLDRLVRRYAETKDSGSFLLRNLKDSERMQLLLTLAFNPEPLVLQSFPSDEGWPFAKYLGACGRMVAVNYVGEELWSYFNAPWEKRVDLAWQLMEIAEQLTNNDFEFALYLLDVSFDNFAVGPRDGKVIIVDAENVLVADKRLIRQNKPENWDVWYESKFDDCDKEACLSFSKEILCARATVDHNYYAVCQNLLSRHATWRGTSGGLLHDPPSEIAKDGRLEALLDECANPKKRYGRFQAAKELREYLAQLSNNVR
UniProt Q9Y2H0: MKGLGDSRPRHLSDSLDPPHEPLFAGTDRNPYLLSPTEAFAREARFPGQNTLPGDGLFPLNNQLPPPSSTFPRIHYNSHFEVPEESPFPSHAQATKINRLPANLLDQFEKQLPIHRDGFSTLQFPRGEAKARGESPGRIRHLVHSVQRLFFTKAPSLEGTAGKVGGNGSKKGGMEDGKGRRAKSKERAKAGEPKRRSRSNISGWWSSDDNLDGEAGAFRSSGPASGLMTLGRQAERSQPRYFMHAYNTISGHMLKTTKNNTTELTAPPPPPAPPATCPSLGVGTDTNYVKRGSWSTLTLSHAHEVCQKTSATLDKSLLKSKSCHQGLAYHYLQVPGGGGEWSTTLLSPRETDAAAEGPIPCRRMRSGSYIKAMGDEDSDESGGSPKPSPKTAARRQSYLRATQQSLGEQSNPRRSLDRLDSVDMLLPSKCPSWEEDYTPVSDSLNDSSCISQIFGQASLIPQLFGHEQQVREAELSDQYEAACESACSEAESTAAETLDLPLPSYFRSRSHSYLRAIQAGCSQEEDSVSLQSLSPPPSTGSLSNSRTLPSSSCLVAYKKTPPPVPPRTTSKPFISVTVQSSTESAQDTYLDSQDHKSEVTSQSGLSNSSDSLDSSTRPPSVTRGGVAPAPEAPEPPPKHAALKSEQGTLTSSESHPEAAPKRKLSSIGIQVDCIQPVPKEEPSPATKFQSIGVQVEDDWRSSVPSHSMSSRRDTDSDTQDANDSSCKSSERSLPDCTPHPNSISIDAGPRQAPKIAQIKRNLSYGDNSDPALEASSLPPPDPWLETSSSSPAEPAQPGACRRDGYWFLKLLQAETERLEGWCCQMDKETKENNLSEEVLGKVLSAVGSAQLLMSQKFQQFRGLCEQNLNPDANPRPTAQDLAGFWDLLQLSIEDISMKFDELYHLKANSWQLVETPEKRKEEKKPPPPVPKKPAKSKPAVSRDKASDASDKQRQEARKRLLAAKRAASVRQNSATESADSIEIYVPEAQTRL
UniProt Q7L014: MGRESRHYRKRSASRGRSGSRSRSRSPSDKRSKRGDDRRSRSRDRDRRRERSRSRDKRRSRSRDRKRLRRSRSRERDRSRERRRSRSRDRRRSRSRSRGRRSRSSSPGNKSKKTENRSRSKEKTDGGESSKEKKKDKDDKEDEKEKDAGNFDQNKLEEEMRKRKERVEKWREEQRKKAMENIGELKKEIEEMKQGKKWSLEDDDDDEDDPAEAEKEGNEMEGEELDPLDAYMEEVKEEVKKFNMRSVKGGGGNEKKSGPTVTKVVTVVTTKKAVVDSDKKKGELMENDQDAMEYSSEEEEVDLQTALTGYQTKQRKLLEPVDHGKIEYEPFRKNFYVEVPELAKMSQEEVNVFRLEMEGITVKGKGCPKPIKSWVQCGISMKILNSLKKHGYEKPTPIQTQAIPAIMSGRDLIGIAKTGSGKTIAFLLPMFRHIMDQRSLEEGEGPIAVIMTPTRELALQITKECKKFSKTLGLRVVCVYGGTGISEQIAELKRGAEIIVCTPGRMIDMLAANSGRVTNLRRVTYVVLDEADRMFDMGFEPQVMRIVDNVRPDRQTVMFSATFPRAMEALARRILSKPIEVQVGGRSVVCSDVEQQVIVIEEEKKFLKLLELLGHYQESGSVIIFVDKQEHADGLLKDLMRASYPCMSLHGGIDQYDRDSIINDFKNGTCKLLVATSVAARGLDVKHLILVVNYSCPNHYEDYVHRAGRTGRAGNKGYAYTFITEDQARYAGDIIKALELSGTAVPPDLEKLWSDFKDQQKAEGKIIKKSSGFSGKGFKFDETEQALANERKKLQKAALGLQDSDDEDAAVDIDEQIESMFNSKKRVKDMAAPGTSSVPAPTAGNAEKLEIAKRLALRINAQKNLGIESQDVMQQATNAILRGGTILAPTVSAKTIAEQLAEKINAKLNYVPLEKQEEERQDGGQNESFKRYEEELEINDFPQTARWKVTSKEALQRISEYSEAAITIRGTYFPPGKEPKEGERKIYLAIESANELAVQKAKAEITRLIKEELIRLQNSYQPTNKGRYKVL
UniProt Q8TF46, whole entry, looked up: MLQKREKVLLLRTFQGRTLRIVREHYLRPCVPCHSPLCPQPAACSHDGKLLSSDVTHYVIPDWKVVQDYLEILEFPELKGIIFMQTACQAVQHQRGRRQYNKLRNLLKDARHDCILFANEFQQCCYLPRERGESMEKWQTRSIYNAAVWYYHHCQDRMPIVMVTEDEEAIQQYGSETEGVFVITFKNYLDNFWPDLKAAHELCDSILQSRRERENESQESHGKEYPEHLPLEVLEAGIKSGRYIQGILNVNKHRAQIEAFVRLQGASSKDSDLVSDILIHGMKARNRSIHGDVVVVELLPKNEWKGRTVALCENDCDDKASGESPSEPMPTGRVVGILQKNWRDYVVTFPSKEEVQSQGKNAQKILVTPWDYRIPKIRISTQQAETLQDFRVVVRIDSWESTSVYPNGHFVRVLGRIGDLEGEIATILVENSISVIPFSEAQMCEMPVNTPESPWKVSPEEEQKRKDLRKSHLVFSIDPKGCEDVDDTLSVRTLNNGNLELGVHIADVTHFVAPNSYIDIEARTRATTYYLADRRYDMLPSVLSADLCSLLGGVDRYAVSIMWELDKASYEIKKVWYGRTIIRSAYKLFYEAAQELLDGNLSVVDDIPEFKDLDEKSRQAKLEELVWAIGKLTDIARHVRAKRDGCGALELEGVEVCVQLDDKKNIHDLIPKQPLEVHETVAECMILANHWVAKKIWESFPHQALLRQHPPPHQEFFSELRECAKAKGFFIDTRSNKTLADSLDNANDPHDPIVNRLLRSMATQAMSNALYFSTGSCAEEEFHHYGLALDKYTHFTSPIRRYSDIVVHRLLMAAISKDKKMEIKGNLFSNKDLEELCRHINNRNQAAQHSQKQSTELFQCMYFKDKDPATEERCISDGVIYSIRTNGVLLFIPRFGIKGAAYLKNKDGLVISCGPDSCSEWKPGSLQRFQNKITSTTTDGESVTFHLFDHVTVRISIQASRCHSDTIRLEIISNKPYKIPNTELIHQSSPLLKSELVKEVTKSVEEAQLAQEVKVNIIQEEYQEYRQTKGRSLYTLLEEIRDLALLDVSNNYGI

What was measured:
Test in all cases: log2 fold change, soluble protein after heating vs DMSO (PISA); higher = thermal stabilisation; K562 cells, 10 uM, 30 min; active = over 0.2 and 3.5 SD of the protein, either way, in both replicates (recomputed)
[1] = compound: NC(=O)Nc1cc(-c2cccc(F)c2)sc1C(=O)N[C@H]1CCCNC1
In short: (§1)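 Aliquots of K562 cells (2×10^6 cells/mL) treated with 10 μM compound for 30 min were heated for 3 min over 48°C-58°C. After pooling and extraction in PBS with 0.5% NP-40 at 4°C, soluble protein from a 21,000xg, 90 min spin was quantified by TMTpro 16plex LC-MS/MS with channel sums equalised. Thermal stability is expressed against control samples, from duplicates, as a log2 fold change.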

[2] = compound: NC(=O)c1cnc(N[C@@H]2CCCC[C@@H]2N)nc1Nc1cccc(-n2nccn2)c1
In short: as §1

[3] = compound: NC1(c2ccc(-c3nc4ccn5c(=O)[nH]nc5c4cc3-c3ccccc3)cc2)CCC1
In short: as §1

[4] = compound: NCC(=O)Nc1ccc(-n2nc(C(F)(F)F)cc2-c2ccc3c(ccc4ccccc43)c2)cc1
In short: as §1

[5] = compound: Nc1ccccc1NC(=O)c1ccc(CNC(=O)OCc2cccnc2)cc1 [entinostat]
In short: as §1

[6] = compound: O=C(CCCCCCC(=O)Nc1ccccc1)NO [vorinostat]
In short: as §1

[7] = compound: O=C(CCCCCCNC(=O)c1cnc(N(c2ccccc2)c2ccccc2Cl)nc1)NO [citarinostat]
In short: as §1

[8] = compound: O=C(O)c1ccc2c(c1)nc(Nc1cccc(Cl)c1)c1ccncc12 [silmitasertib]
In short: as §1

[9] = compound: O=C1NC(=O)C(c2cnc3ccccn23)=C1c1cn2c3c(cc(F)cc13)CN(C(=O)N1CCCCC1)CC2
In short: as §1

[10] = compound: c1cc(OCCN2CCCCC2)cc(-c2n[nH]c3ccc(-c4nnc[nH]4)cc23)c1
In short: as §1

Measured: log2 fold change

DHCR7 (UniProt Q9UBM7)
inactive: [1] 0.08 | [2] 0.014 | [3] 0.239 | [4] -0.134 | [5] 0.082 | [6] 0.03 | [7] -0.023 | [8] -0.084 | [9] -0.04 | [10] -0.026

DHX16 (UniProt O60231)
inactive: [1] 0.005 | [2] 0.018 | [3] -0.021 | [4] -0.044 | [5] 0.013 | [6] 0.001 | [7] 0.049 | [8] -0.142 | [9] -0.012 | [10] -0.041

DHX57 (UniProt Q6P158)
inactive: [1] 0.029 | [2] 0.055 | [3] 0.131 | [4] 0.024 | [5] 0 | [6] -0.025 | [7] 0 | [8] 0.068 | [9] 0.062 | [10] -0.114

DDX39A (UniProt O00148)
inactive: [1] -0.067 | [2] -0.04 | [3] 0.057 | [4] -0.042 | [5] -0.003 | [6] 0.048 | [7] -0.006 | [8] -0.011 | [9] -0.107 | [10] -0.233

DNAAF5 (UniProt Q86Y56)
inactive: [1] -0.084 | [2] -0.086 | [3] -0.191 | [4] 0.139 | [5] -0.295 | [6] 0.006 | [7] 0.032 | [8] 0.112 | [9] 0.358 | [10] -0.187

DENR (UniProt O43583)
inactive: [1] -0.001 | [2] 0.004 | [3] 0.033 | [4] 0.024 | [5] -0.013 | [6] 0.003 | [7] -0.053 | [8] -0.073 | [9] -0.004 | [10] 0.001

DDX39B isoform 2 (UniProt Q13838)
inactive: [1] -0.016 | [2] -0.005 | [3] 0.069 | [4] 0.004 | [5] -0.041 | [6] -0.027 | [7] -0.015 | [8] 0.001 | [9] 0.048 | [10] -0.073

DHX8 (UniProt Q14562)
inactive: [1] -0.086 | [2] -0.14 | [3] 0.03 | [4] -0.186 | [5] -0.033 | [6] -0.094 | [7] -0.031 | [8] 0.008 | [9] -0.002 | [10] -0.063

DDX41 (UniProt Q9UJV9)
inactive: [1] -0.112 | [2] 0.192 | [3] -0.07 | [4] -0.137 | [5] 0.044 | [6] 0.107 | [7] -0.009 | [8] -0.014 | [9] -0.038 | [10] -0.166

DHRS4L1 (UniProt P0CG22)
inactive: [1] -0.075 | [2] -0.005 | [3] -0.024 | [4] -0.01 | [5] 0.016 | [6] -0.022 | [7] -0.013 | [8] -0.026 | [9] -0.048 | [10] -0.027

DGCR8 (UniProt Q8WYQ5)
inactive: [1] 0.115 | [2] 0.085 | [3] 0.256 | [4] 0.173 | [5] 0.028 | [6] 0.008 | [7] -0.129 | [8] 0.173 | [9] 0.219 | [10] -0.113

DGUOK (UniProt Q16854)
inactive: [1] 0.024 | [2] 0.028 | [3] 0.054 | [4] -0.043 | [5] -0.034 | [6] -0.014 | [7] 0.024 | [8] -0.009 | [9] -0.072 | [10] -0.043

DHX38 (UniProt Q92620)
inactive: [1] 0.053 | [2] 0.042 | [3] -0.066 | [4] 0.006 | [5] -0.01 | [6] -0.02 | [7] 0.009 | [8] 0.024 | [9] -0.003 | [10] -0.01

DDX59 (UniProt Q5T1V6)
inactive: [1] 0 | [2] -0.038 | [3] -0.032 | [4] -0.034 | [5] 0.008 | [6] -0.014 | [7] 0.127 | [8] 0.054 | [9] -0.173 | [10] -0.019

DDHD2 (UniProt O94830)
inactive: [1] 0.006 | [2] -0.065 | [3] -0.08 | [4] 0.023 | [5] 0.032 | [6] 0.082 | [7] 0.047 | [8] -0.02 | [9] -0.025 | [10] 0.026

Seven consecutive records from above, quoted:
DHCR7 (UniProt Q9UBM7)
inactive: [1] 0.08 | [2] 0.014 | [3] 0.239 | [4] -0.134 | [5] 0.082 | [6] 0.03 | [7] -0.023 | [8] -0.084 | [9] -0.04 | [10] -0.026

DHX16 (UniProt O60231)
inactive: [1] 0.005 | [2] 0.018 | [3] -0.021 | [4] -0.044 | [5] 0.013 | [6] 0.001 | [7] 0.049 | [8] -0.142 | [9] -0.012 | [10] -0.041

DHX57 (UniProt Q6P158)
inactive: [1] 0.029 | [2] 0.055 | [3] 0.131 | [4] 0.024 | [5] 0 | [6] -0.025 | [7] 0 | [8] 0.068 | [9] 0.062 | [10] -0.114

DDX39A (UniProt O00148)
inactive: [1] -0.067 | [2] -0.04 | [3] 0.057 | [4] -0.042 | [5] -0.003 | [6] 0.048 | [7] -0.006 | [8] -0.011 | [9] -0.107 | [10] -0.233

DNAAF5 (UniProt Q86Y56)
inactive: [1] -0.084 | [2] -0.086 | [3] -0.191 | [4] 0.139 | [5] -0.295 | [6] 0.006 | [7] 0.032 | [8] 0.112 | [9] 0.358 | [10] -0.187

DENR (UniProt O43583)
inactive: [1] -0.001 | [2] 0.004 | [3] 0.033 | [4] 0.024 | [5] -0.013 | [6] 0.003 | [7] -0.053 | [8] -0.073 | [9] -0.004 | [10] 0.001

DDX39B isoform 2 (UniProt Q13838)
inactive: [1] -0.016 | [2] -0.005 | [3] 0.069 | [4] 0.004 | [5] -0.041 | [6] -0.027 | [7] -0.015 | [8] 0.001 | [9] 0.048 | [10] -0.073

Additional entries follow.

DGKZ (UniProt Q13574)
inactive: [1] -0.019 | [2] -0.06 | [3] 0.034 | [4] -0.125 | [5] 0.079 | [6] -0.053 | [7] -0.088 | [8] 0.027 | [9] -0.024 | [10] -0.068

DIPK2A (UniProt Q8NDZ4)
inactive: [1] 0.018 | [2] 0.029 | [4] -0.035 | [5] -0.126

DDA1 (UniProt Q9BW61)
inactive: [1] -0.031 | [2] -0.051 | [3] -0.049 | [4] 0.013 | [5] -0.002 | [6] -0.031 | [7] 0.022 | [8] -0.011 | [9] -0.076 | [10] -0.037

DHRS13 (UniProt Q6UX07)
inactive: [1] 0.182 | [2] -0.012 | [3] 0.102 | [4] 0.156 | [5] 0.043 | [6] -0.013 | [7] 0.1 | [8] 0.087 | [10] -0.06

DDB2 (UniProt Q92466)
inactive: [1] 0.164 | [2] 0.071 | [3] 0.056 | [4] -0.092 | [5] -0.098 | [6] 0.147 | [8] -0.08 | [9] -0.036

DLGAP4 (UniProt Q9Y2H0)
inactive: [1] 0.028 | [2] -0.037 | [3] -0.006 | [4] -0.01 | [5] -0.046 | [6] -0.039 | [7] 0.052 | [8] -0.024 | [9] -0.059 | [10] -0.097

DLG2 isoform 2 (UniProt Q15700)
inactive: [1] -0.057 | [2] 0.082 | [3] -0.089 | [4] -0.131 | [5] 0.004 | [6] -0.101 | [7] -0.046 | [8] 0.043 | [9] -0.03 | [10] 0.043

DDX46 (UniProt Q7L014)
inactive: [1] -0.185 | [2] -0.087 | [3] -0.178 | [4] -0.197 | [5] 0.095 | [6] 0 | [7] 0.103 | [8] 0.018 | [9] -0.243 | [10] 0.084

DDX18 (UniProt Q9NVP1)
inactive: [1] -0.037 | [2] -0.03 | [3] 0.255 | [5] 0.029 | [6] 0.09 | [7] -0.072 | [8] 0.155 | [10] -0.4

DHRS11 (UniProt Q6UWP2)
inactive: [1] -0.014 | [2] -0.036 | [3] -0.036 | [4] 0.014 | [5] -0.053 | [6] 0.053 | [7] 0.016 | [8] -0.016 | [9] -0.079 | [10] 0.045

DIS3L (UniProt Q8TF46)
inactive: [1] 0.043 | [2] -0.137 | [3] 0.091 | [4] 0.104 | [5] -0.05 | [7] -0.169 | [8] 0.112 | [9] -0.007 | [10] 0.092

DDX47 (UniProt Q9H0S4)
inactive: [1] 0.087 | [2] 0.298 | [3] 0.173 | [4] -0.156 | [5] -0.021 | [8] 0.061 | [9] 0.134
